According to US20250176553A1, “SOLUTION FOR […] AND METHOD OF PRODUCING THEREOF” (OCT, Inc., priority 2022, published 2025):
“And” between values parts separate entries of the source, which are not always exact repeats. Equal values may be shown once. Read-outs that look alike come from different tables or passages of the source. The source gives many values for each of these; only a part stands here.

Test system: Streptococcus mutans biofilms
Conditions: individual samples 1-6, medium replaced after biofilm formation, further 24 hours
Text: FIGS. 3 to 6 show the experimental results in which Streptococcus mutans strains are actually used. Streptococcus mutans is a facultative anaerobe and a gram-positive streptococcus. It produces insoluble, sticky glucans that stick to tooth surfaces. It is one of the bacteria that mainly cause dental caries. THB (TODD-HEWITT BROTH) supplemented with 2% (w/v) sucrose was used as the medium. Sucrose is a sugar composed of the monosaccharides glucose and fructose with an α-1,2-glycosidic linkage and one of the disaccharides. THB manufactured by Becton, Dickinson and Company was used. For sucrose, “CASRN” manufactured by FUJIFILM Wako Pure Chemical Corporation was used. The plate used for culture was a Thermo Scientific Nunclon Delta Surface 96 well. The incubator used was a Panasonic multi-gas incubator MCO-5MUV-PJ. Culturing was conducted at 37° C. under an atmosphere of 5% CO2 gas, 5% O2 gas and 90% N2 gas.
Devices and the like used to measure residual biofilms are described below. For staining, 0.1% Crystal Violet from FUJIFILM Wako Pure Chemical Corporation was used. It was dissolved in distilled water to 0.1% (w/v).
Life Technologies EVOS XL Core was used as the microscope for photography. […] Co., Ltd. was used as the absorption spectrometer. The data processing software was “SF6” and the absorbance wavelength was 590 nm.
Streptococcus mutans was diluted in 2% sucrose-containing THB and 10 inoculated samples of 100 μL each were plated onto cell culture plates (Thermo Scientific Nunclon Delta Surface 96well). The samples were then cultured in a multi-gas incubator for 24 hours to allow biofilms to form on the bottom of each plate.
The media were removed and the plates were washed with distilled water 24 hours after the start of cultivation. […] The samples were further cultured in a multi-gas incubator for 24 hours. After culturing, the plates were washed with distilled water and stained with 0.1% Crystal Violet solution for 10 minutes. After staining, the plates were washed again with distilled water, dried and then observed and photographed using a bright field inverted microscope.

SMILES: [2H]OS(=O)(=O)O[2H] [deuterated sulfuric acid (D2SO4)]
- Absorbance (pH 2.0): 1.108 and 1.005 and 0.982
- Absorbance (pH 2.3): 1.005 and 1.237 and 1.077
- Absorbance (pH 2.7): 1.111 and 1.078 and 1.010
- Absorbance (pH 3.3): 1.176 and 1.191 and 1.094
- Absorbance (pH 3.7): 1.134 and 1.094 and 1.102
